The results in this text go back to article PMC4145801.

Experiment [1] concerns the target inner kinetochore protein CENP-C (human (endogenous in HeLa)) (UniProt Q03188). The experiment is described as follows: co-IP; chromatin from non-synchronized HeLa cells after 2 min MNase digestion (long arrays rich in tri-, tetra- and penta-nucleosomes), extracted overnight at 4°C in low-salt buffer (0.5x PBS, 5 mM EGTA); IP with antibody against CENP-A, CENP-C or RNAPII^S2P and protein A/G Plus agarose beads; partners detected on Western blots; mock IP without antibody as control.

Experiment [2] has as its target centromeric protein A (CENP-A), centromeric histone H3 variant (human (endogenous in HeLa)) (UniProt P49450). The experiment is described as above.

Results are given in words; binding and its absence hold for the method and conditions named. In cells and extracts the contact can be indirect. Some results given as binding are weak or reduced against the parent protein; the word gives no strength.

Consider “TATA-box binding protein (TBP) (from UniProt P20226 1-339)”, for which the binding result in experiment [1] and in experiment [2] was “binds” throughout.
